# In the supplement of paper PMC3334620:
# The full ranking holds about 33,000 sequences; the median of “E-score (-0.5 to 0.5)” is about -0.0059, and the highest 2% start at about 0.26. This is one part of the list.
# Target: T1, Cin5 (UniProt P40917)
# T1 sequence: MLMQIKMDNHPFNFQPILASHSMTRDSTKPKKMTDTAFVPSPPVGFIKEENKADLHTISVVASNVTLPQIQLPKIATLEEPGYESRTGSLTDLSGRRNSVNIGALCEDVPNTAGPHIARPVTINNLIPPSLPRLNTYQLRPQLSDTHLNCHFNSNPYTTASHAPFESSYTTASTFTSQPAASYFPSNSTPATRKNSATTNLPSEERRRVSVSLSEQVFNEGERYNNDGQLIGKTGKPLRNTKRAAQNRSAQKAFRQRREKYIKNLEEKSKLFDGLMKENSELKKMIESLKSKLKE
# Test: PBM E-score (8-mer binding enrichment) (E-score (-0.5 to 0.5)); higher = stronger / more preferred TF binding
# Conditions: protein concentration: 100 nM; construct: GST-full length
# Summary of the method: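 Each ungapped eight-base word and its reverse complement, pooled, received an E-score from the Universal PBM Analysis Suite. Underlying scans, normalised with masliner, recorded fluorescent anti-GST bound to GST-tagged yeast transcription factors. These were applied at about 100-200 nM to universal all-10-mer Agilent arrays double-stranded by primer extension.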
row,Sequence,PBM E-score
1,GGGCCCAA,-0.0478
2,CACGTGTC,-0.152
3,CGGGGGGC,-0.356
4,GGGATTGA,-0.0508
5,AAATCTAA,0.0371
6,AGTTTTGA,0.0556
7,CTTCAGAA,0.0169
8,CCCCACCC,0.153
9,CCCTACGC,-0.224
10,GCCTGAAC,-0.289
11,GGGCCACC,-0.167
12,GTGTTTCA,-0.124
13,CTCGGCGA,0.0665
14,AAAGGAAA,0.188
15,ATGTAACA,0.232
16,AGGAAGGC,-0.164
17,GCTATAAC,-0.0874
18,ACCTTCGG,-0.019
19,CCATATTC,-0.0364
20,ATCAGCCC,0.0897
21,CAATGTCC,-0.088
22,AACTGGGT,-0.068
23,ACCTTCCG,0.0586
24,AAATGCCC,-0.0815
25,ACGATTTG,0.155

row,Sequence,PBM E-score
1,CTATTAGC,0.155
2,CGTCTGAA,-0.133
3,AATTTTAA,0.173
4,GGTTCGCA,-0.122
5,CTGGCTTA,-0.0304
6,GGTAAAGA,0.104
7,CTGTACCC,-0.142
8,ATTAAATG,0.245
9,AATGAGTA,0.24
10,GCGGTGCA,-0.225
11,ATAGCCAA,0.166
12,ACAGCGTC,0.00869
13,CACTGGAG,-0.2
14,AGGAGCCT,-0.382
15,ATCAGCAG,0.197
16,CGGACGCC,-0.22
17,ACATCCGG,0.0742
18,GCTTGGGA,0.00656
19,AATGGCCT,0.0447
20,GGATGGAA,-0.0365
21,ATTTAATC,0.249
22,CCAAGTTA,0.0982
23,TTCCGAAA,0.021
24,ATCATAAA,0.131
25,GGAATAAA,0.0744

row,Sequence,PBM E-score
1,CGGACCTA,0.0341
2,GGGTCCAA,-0.0685
3,TAAGTACA,0.149
4,ACACTCCC,-0.0629
5,CATTTTCA,0.197
6,GGTCCGTA,-0.149
7,CAGGAATA,0.0439
8,CAGACTAC,-0.154
9,CTTAATTA,0.0921
10,CAACCTTA,0.117
11,ATAGACTC,-0.171
12,CAAGCCAA,0.0487
13,GAGTAGCA,0.0893
14,TAGTCCAA,-0.0825
15,AGGCCTGG,-0.274
16,ACACAGCG,0.113
17,CGTTCCAC,-0.189
18,ATTAAAGA,0.138
19,TCGTTCCA,-0.27
20,ATGTTTGC,0.0258
21,AGTACTGG,-0.156
22,ACATCGTA,0.0136
23,ACATACGA,0.137
24,TCCGTGCA,0.0872
25,GTGATGGA,0.0255

# Random excerpt: 6 entries already listed
row,Sequence,PBM E-score
7,CAGGAATA,0.0439
20,ATGTTTGC,0.0258
21,AGTACTGG,-0.156
18,ATTAAAGA,0.138
25,GTGATGGA,0.0255
14,TAGTCCAA,-0.0825

# Remaining list, next part.

row,Sequence,PBM E-score
1,CTAAAACC,-0.111
2,CGGCCTAG,-0.0903
3,ACGTACGT,0.0514
4,ACTACTCA,0.112
5,ACCGAGCG,-0.0819
6,CGCGTCGA,0.0758
7,ACAGCACG,-0.0485
8,AAAGGCAC,-0.136
9,AGTACAAG,0.0267
10,AACACCAA,0.135
11,ATCATTTC,0.264
12,ATACAACG,0.174
13,AGGACTAG,-0.0929
14,GATGCACC,-0.029
15,CGTTTGTC,0.0128
16,GATTGCCC,-0.0542
17,CTAACCAC,-0.0985
18,ACTGCTTC,-0.123
19,AATGTTCA,0.074
20,CAAGAAGG,-0.0614
21,GTGGACCA,-0.0436
22,CACTCTGC,0.0346
23,CGGGGGCC,-0.368
24,GGTCGGTA,-0.0138
25,AGACTGAT,0.0117

row,Sequence,PBM E-score
1,CGTCAAGC,-0.155
2,GTCCGTGA,-0.0178
3,GAGTACGA,0.0997
4,GCCATGGA,-0.104
5,TCGGCTCA,-0.0984
6,GCAGTATA,0.107
7,CGTCGCGA,0.0627
8,ACCTGGCT,-0.137
9,AACATGAC,0.196
10,TATCGGAA,0.143
11,GTCGCTTA,0.177
12,GTGCCCTA,-0.2
13,AATCCCAG,-0.00941
14,CTAGCGAC,-0.11
15,AGTCCATC,-0.0838
16,GTCTTTAA,-0.00854
17,CCGTATAG,-0.175
18,CTACGTGC,-0.0915
19,ATTTTATG,0.208
20,GCAGAAGA,-0.0227
21,AGACATAA,0.124
22,CCAGTACG,-0.0793
23,ATCGCGGG,0.0556
24,AGTCTGAG,-0.28
25,AGTTAAGG,0.111

row,Sequence,PBM E-score
1,ACATAGCA,0.0903
2,ACTGCTCG,0.0493
3,CTATTTAA,-0.0553
4,TAGGAATA,-0.00255
5,AGTCAGGA,0.0328
6,AGGGAAGC,-0.171
7,TCGAGAAA,0.0197
8,GCGGGGAA,0.0829
9,AGAAAAAG,-0.0274
10,CTGCCAAG,-0.153
11,GAAGGCCC,-0.33
12,CCTTCCCG,-0.103
13,CGGGCCGA,-0.152
14,TCCTAGCA,-0.176
15,CCGAATGC,-0.0331
16,TTCAAGAA,0.00208
17,GGTTGTAA,0.0455
18,CTATGCAG,-0.0652
19,AAAATTGT,0.139
20,AAGAGGAT,-0.139
21,ACAAGATC,-0.124
22,TACTGGCA,-0.233
23,GAGGGCAA,0.0161
24,TACTCGGA,0.115
25,CACCTAGA,-0.101

row,Sequence,PBM E-score
1,AACCTACA,0.109
2,AGGAACAC,-0.0084
3,AGTCATTC,0.0712
4,ATGCGACG,-0.0966
5,CTTACGAA,0.26
6,AGGTAGTA,0.102
7,CAGCCCGA,-0.135
8,ACGCAGCG,-0.174
9,AACACTGG,-0.0449
10,CGATGGAA,0.0127
11,ACTCTTCC,-0.24
12,ACAGCCAG,-0.0281
13,ATTCATCA,0.221
14,GAGTAGAA,0.0563
15,GAAGACCA,-0.0788
16,ATAAGAGC,0.181
17,CGGAAGGC,-0.178
18,ACGCGGCC,-0.184
19,GCGCACCA,0.0468
20,CCTGCTAA,-0.187
21,AGCCGTAA,0.0779
22,TCTAAACA,-0.115

# Shown as tab-separated lines: entries from further up
row	Sequence	PBM E-score
7	CTTCAGAA	0.0169
8	CCCCACCC	0.153
9	CCCTACGC	-0.224
